Measured values as given in article PMC12420792.
Results are given in words; binding and its absence hold for the method and conditions named. Binding seen in cells or lysates may run through a third protein. Some results given as binding are weak or reduced against the parent protein; the word gives no strength. Tags and fused reporters may be left off the sequences shown.

Protein sequences, listed by entry. Tags and fused reporters are not part of them.
UniProt Q9Z2C8: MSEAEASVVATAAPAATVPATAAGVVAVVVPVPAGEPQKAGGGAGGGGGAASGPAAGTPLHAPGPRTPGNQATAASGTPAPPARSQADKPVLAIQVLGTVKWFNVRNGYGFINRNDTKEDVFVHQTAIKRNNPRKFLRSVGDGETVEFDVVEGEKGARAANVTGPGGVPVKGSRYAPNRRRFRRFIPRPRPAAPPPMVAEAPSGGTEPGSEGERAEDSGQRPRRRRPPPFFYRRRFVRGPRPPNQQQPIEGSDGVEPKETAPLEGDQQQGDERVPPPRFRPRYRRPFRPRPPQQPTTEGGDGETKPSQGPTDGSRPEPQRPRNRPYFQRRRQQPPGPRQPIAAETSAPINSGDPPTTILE

Assays:
Experiment in all cases: co-IP; HeLa cells co-transfected, 36 h; NP40 lysis buffer with protease inhibitors; FLAG-beads or HA-beads, 4 °C, 2 h; four washes with lysis buffer; blots with anti-FLAG or anti-HA
YBX2-FLAG (mouse) = YBX2-FLAG (mouse) (UniProt Q9Z2C8)
ZAR1 Δ290-361 (mouse) = target: T1, ZAR1 Δ290-361 (mouse) (UniProt Q80SU3)
T1 sequence: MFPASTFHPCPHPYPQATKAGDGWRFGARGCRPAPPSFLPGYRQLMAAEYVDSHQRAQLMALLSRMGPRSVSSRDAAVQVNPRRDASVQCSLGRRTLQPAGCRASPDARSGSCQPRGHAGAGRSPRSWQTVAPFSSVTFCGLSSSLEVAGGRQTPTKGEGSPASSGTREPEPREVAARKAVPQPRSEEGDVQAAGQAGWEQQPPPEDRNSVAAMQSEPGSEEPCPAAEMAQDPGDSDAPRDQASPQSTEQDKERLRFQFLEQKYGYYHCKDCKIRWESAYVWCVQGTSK

ZAR1 Δ218-289 (mouse) = target: T2, ZAR1 Δ218-289 (mouse) (UniProt Q80SU3)
T2 sequence: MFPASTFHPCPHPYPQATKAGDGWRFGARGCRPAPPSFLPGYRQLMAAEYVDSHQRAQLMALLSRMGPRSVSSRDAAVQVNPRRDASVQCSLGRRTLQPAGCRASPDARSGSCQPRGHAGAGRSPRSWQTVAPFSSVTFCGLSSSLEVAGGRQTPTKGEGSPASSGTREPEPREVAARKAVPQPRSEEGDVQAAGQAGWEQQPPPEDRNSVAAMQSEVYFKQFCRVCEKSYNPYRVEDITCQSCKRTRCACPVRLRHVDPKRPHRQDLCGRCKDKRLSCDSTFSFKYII

ZAR1-FLAG (mouse) = target: T3, ZAR1-FLAG (mouse) (UniProt Q80SU3)
T3 sequence: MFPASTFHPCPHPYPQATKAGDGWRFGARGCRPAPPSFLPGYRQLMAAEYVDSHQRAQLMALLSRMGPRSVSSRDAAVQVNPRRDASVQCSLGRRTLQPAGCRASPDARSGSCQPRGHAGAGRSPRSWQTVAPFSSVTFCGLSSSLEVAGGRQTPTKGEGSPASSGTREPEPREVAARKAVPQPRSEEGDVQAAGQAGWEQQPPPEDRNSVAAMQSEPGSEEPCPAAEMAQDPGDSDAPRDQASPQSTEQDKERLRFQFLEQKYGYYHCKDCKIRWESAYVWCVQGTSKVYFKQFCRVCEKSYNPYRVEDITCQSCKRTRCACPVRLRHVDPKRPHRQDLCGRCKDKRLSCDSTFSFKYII

binding (YBX2-FLAG (mouse)): binds weakly
binding (ZAR1 Δ290-361 (mouse)): no binding
binding (ZAR1 Δ218-289 (mouse)): no binding
binding (ZAR1-FLAG (mouse)): binds
B1: KLHL8-HA (protein, UniProt P59280 1-629)
chain: MASESTNGKQARSHVTKGRRQYQHQHQQQQQQQQQVRSRSSVSECDGDDSFIFEANEAWKDFHGSLLGFYENGELCDVTLKVGSKLISCHKLVLACVIPYFRAMFLSEMSEAKQALIEIRDFDGDAVEDLVKFVYSSRLTLTVDNVQPLLYAACILQVELVARACCEYMQLHFHPSNCLAVRAFAESHNRIDLMDMADQYACEHFTEVVECEDFVSVSPQHLHKLLSSSDLNIDSEKQVYSAAIKWLLANPQHHPKWLDETLAQVRLPLLPVDFLMGVVAKEQIVKQNLKCRDLLDEARNYHLHLSSKPVPDFEYTVRTTPRKHTAGVLFCVGGRGGSGDPFRSIECYSINKNSWFFGPEMNSRRRHVGVISVEGKVYAVGGHDGNEHLGSMEMFDPLTNKWMMKASMNTKRRGIALASLGGPIYAIGGLDDNTCFSDVERYDIESDQWSTVAPMNTPRGGVGSVALINHVYAVGGNDGVASLSSVERYHPHLDKWIEVKEMGQRRAGNGVSELHGCLYVVGGFDDNSPLSSVERYDPRSNKWDYVAALTTPRGGVGIATVMGKIFAVGGHNGNAYLNTVEAFDPVLNKWELVGPVSHCRAGAGVAVCDCLTSQIRDVGHGSTNVVDCM
